Laboratory results taken from PubChem BioAssay AID2685 (National Center for Advancing Translational Sciences (NCATS), 2010).
Some of the results follow. The main result of the screen is listed elsewhere. These columns were measured beside it and carry no call. Most of these compounds were active or inconclusive in the main read-out, so they are no random draw. Potencies come from curve fits of mixed quality, noted in brackets.

Assay: qHTS Assay for Lipid Storage Modulators in Drosophila S3 Cells;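 for cell number change: cells counted by Cell Tracker Red CMTPX staining in the red channel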
Details: BODIPY lipid droplet fluorescence, 18-24 h; for cell number change: measured here: cell count max response, cells fed with added oleic acid
Procedure, shortened: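 Drosophila S3 cells loaded with oleic acid (400 uM, as added) and compounds at several concentrations; lipid droplets imaged by 488-nm laser-scanning cytometry, 500–530 nm intensity and object ratio to cell channel. Percent activity normalized to 20 uM Triacsin C.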

[1] = measured here: lipid fluorescence (Fed channel) AC50, cells fed with added oleic acid
[2] = measured here: cell number channel AC50, cells fed with added oleic acid

SMILES | cell number change [%] | AC50 [1] | AC50 [2]
Cc1ccc(NC(=O)COc2ccc3c(c2)OCO3)c(C)c1 | -23.1 | 16.4 µM [rising, partial curve, poor fit] | 
COc1ccccc1N(Cc1ccccc1)S(=O)(=O)c1cccc(C(=O)Nc2ncccc2C)c1 | 104 |  | 
O=C(COC(=O)c1ccc(S(=O)(=O)NCc2ccco2)cc1)NC1CCCCCC1 | -67.3 |  | 16.4 µM [falling, partial curve, poor fit]
O=C(CN1CCN(C(=O)c2ccccc2)CC1)Nc1ncc(Br)cc1Br |  | 2.31 µM [rising, partial curve] | 2.31 µM [rising, partial curve]
Cc1ccc(-c2cc(C(=O)NCc3cnn(C)c3C)c3cc(Br)ccc3n2)cc1 | -27.6 | 32.6 µM [falling, single point] | 
Cc1ccc(NC(=O)c2cc(C(C)(C)C)nn2Cc2ccccc2)cc1 | -46.1 | 20.6 µM [falling, partial curve] | 18.4 µM [falling, single point]
CC1(C)O[C@@H]2[C@H](O1)[C@@H](COS(=O)(=O)O)O[C@H]2n1cnc2c(N)ncnc21 | 4.36 |  | 
NC(=O)CSc1nnc(COc2ccc3ccccc3c2)o1 | -12.4 | 0.731 µM [falling, full curve] | 
CCN(CC(=O)NCc1cccs1)CC(=O)Nc1c(Cl)ccc(C)c1Cl | 3.19 | 7.31 µM [falling, partial curve, poor fit] | 6.51 µM [falling, single point]
NC(=S)N/N=C/c1ccc(C23CC4CC(CC(C4)C2)C3)cc1 | -41.4 |  | 10.3 µM [falling, partial curve]
O=C(COC(=O)c1cccc(Cl)c1)Nc1ccc2[nH]c(=O)[nH]c2c1 | -17.6 | 4.61 µM [falling, full curve] | 
CCCCCCCCCCCCCCCC[N+](C)(C)CCN(Cc1ccc(OC)cc1)c1ncccn1 |  |  | 6.51 µM [falling, single point]
CCCCOc1ccc(C(=O)Oc2cccnc2)cc1 | -7.67 | 1.46 µM [falling, partial curve] | 
O=C(CCc1c[nH]c2ccccc12)NCC(=O)Nc1ccc(F)c(F)c1F | -1.08 |  | 6.51 µM [rising, single point]
CC1CCCN(C(=O)CSc2nnc(-c3ccc(S(=O)(=O)N4CCOCC4)cc3)n2C)C1 (centres undefined) | -11.2 |  | 
N#Cc1c(NC(=O)CSc2n[nH]c(N)n2)oc(-c2ccccc2)c1-c1ccccc1 |  | 0.13 µM [rising, full curve, poor fit] | 

Shown in markdown: entries from further up.

| SMILES | cell number change [%] | AC50 [1] | AC50 [2] |
| --- | --- | --- | --- |
| Cc1ccc(NC(=O)COc2ccc3c(c2)OCO3)c(C)c1 | -23.1 | 16.4 µM [rising, partial curve, poor fit] |  |
| O=C(CN1CCN(C(=O)c2ccccc2)CC1)Nc1ncc(Br)cc1Br |  | 2.31 µM [rising, partial curve] | 2.31 µM [rising, partial curve] |
